No constants are given. Whether binding was seen depends on the method and setting. Binding seen in cells or lysates may run through a third protein. Some entries that bind do so weakly or less than the wild type.
Molecular target: ARID1B (human (endogenous in hiPSC-derived day 5 cells)) (UniProt Q8NFD5)
Experiment: co-IP; anti-ARID1B antibody on Protein A Dynabeads incubated with 100 ug nuclear extract of SALL4-WT cells at day 5, 3 h at 4°C; washed five times with Buffer C (400 mM NaCl); immunoblot for SALL4; IgG as negative control

Chains of the proteins cited; added tags and fusions are not shown.
UniProt Q8NFD5: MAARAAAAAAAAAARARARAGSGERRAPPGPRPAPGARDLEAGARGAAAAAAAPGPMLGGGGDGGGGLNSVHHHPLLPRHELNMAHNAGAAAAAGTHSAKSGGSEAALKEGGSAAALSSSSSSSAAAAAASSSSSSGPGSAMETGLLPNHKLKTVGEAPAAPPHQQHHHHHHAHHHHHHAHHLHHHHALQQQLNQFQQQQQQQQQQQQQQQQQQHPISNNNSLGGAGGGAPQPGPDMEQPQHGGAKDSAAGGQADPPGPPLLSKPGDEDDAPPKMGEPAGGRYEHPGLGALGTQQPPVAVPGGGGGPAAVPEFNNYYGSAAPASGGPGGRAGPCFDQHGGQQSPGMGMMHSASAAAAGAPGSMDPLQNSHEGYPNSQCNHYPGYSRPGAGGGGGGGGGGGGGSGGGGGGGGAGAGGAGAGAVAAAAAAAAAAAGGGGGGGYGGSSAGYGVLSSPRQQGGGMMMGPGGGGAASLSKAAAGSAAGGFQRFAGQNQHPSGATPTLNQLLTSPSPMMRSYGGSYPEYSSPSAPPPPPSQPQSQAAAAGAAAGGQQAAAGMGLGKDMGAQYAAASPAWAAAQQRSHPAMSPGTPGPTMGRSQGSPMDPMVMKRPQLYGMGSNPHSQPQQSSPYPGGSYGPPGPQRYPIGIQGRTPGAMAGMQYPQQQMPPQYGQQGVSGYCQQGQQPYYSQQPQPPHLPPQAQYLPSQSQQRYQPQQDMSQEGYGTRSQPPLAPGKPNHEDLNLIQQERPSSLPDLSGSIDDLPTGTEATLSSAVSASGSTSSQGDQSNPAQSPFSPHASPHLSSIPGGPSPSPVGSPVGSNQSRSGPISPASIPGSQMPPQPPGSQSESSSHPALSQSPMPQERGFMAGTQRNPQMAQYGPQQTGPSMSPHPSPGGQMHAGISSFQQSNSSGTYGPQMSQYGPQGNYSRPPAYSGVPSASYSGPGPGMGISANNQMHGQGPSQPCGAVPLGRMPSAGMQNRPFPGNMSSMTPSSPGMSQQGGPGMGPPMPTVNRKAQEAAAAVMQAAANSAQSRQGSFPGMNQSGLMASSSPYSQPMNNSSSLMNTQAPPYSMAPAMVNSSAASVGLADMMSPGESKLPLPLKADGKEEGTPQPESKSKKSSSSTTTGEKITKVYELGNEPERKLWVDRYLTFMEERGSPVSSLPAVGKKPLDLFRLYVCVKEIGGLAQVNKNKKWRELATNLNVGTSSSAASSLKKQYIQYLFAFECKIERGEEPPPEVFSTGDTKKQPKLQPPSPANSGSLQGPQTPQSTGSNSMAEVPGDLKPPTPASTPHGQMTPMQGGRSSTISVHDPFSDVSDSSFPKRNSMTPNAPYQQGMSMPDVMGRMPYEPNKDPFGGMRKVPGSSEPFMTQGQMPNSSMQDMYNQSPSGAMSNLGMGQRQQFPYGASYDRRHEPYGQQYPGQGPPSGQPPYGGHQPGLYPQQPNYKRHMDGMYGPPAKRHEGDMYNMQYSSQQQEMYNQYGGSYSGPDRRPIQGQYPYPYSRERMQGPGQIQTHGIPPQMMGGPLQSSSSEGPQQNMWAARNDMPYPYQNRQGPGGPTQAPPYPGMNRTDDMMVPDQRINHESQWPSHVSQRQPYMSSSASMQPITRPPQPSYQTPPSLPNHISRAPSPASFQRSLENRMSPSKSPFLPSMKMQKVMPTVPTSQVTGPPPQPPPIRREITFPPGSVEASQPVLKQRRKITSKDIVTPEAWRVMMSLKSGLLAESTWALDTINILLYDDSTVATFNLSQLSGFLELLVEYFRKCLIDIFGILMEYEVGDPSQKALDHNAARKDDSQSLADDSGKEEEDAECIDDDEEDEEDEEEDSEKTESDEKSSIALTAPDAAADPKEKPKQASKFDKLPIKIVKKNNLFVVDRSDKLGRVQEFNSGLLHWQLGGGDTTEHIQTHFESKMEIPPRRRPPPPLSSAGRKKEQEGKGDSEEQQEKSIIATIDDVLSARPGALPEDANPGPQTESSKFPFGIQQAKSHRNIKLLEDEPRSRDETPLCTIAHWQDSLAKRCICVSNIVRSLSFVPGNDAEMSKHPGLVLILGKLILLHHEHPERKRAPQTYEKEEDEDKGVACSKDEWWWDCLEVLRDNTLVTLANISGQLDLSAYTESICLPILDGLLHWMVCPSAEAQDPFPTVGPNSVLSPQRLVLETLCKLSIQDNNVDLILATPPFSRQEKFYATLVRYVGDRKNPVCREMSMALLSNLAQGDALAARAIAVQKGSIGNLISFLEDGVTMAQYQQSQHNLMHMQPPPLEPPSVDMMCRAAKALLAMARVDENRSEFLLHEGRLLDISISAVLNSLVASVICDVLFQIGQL

binding: binds
Substance: SALL4A (from UniProt Q9UJQ4-1 1-1053)

— paper PMC12752504
